At least one compound was matched to its structure with a doubt left.
Test system: NZB/NZW F1 (B/W) mice
Assay: Anti-B7 antibodies and Rapamycin, alone or combined, in mice with onset of renal disease (SLE model): survival and proteinuria
Assay type: in vivo
Conditions: delayed (late, from week 33) dosing compared with early (from week 25) dosing; FIG. 4A

## CO[C@H]1C[C@@H]2CC[C@@H](C)[C@@](O)(O2)C(=O)C(=O)N2CCCC[C@H]2C(=O)O[C@H]([C@H](C)C[C@@H]2CC[C@@H](O)[C@H](OC)C2)CC(=O)[C@H](C)/C=C(\C)[C@@H](O)[C@@H](OC)C(=O)[C@H](C)C[C@H](C)/C=C/C=C/C=C/1C [Rapamycin]
  survival rates, delayed versus early dosing: this difference was not observed in the survival rates
